Experimental data as given in patent US20110144029A1, “Model Systems and Materials for the Study and Treatment of Neurodegenerative Diseases” (BOARD OF REGENTS, THE UNIVERSITY OF TEXAS SYSTEM, priority 2009, published 2011).

Tested on: HT-22 cells
Assay: Subcellular localization of FITC-tagged T-peptide by fluorescence microscopy
Type: cell-based
Details: 3 h treatment

Substance: FITC-(Ahx)2-vqivyk-R9-NH2 [T-FITC-peptide]
- cell entry: enters the cell
- subcellular localization: localizes predominantly in the nucleus
